These are yes or no findings as the source states them, for the method shown.
Molecular target: eGFP-PD-1 (non-relevant eGFP fusion protein) (UniProt Q15116)
Assay: MST; normal model, optimised conditions: MPer lysate with the eGFP fusion kept constant around 33 nM, Fc protein titrated 1:1 in PBS with 0.05% P20 from 1 µM to 0.05 nM; 80% MST power, MST-on 30 s; blue LED; only the binder purified

By UniProt entry, the sequences of proteins in these tests, tags left out. Residues count along the entry.
UniProt Q15116, residues 25-288: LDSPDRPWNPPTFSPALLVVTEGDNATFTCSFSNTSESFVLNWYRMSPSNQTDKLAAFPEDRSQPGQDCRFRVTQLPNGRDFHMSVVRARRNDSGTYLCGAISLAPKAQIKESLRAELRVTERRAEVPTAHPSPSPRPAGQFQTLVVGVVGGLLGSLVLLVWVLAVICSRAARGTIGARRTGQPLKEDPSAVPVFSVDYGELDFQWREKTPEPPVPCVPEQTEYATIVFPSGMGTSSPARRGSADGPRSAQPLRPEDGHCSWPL

## recombinant human ErbB2-Fc chimera (from UniProt P04626 23-652) (Fc fusion)
  binding: no binding (tested: Kd > 20 µM)

— PMC6853952, “MUC4-ErbB2 Oncogenic Complex: Binding studies using Microscale Thermophoresis” (Scientific Reports, 2019)
